Measurements as given in article PMC4071220.

B1: Flag-Hes-1WT (protein, UniProt Q04666 1-281)
chain: MPADIMEKNSSSPVAATPASVNTTPDKPKTASEHRKSSKPIMEKRRRARINESLSQLKTLILDALKKDSSRHSKLEKADILEMTVKHLRNLQRAQMTAALSTDPSVLGKYRAGFSECMNEVTRFLSTCEGVNTEVRTRLLGHLANCMTQINAMTYPGQAHPALQAPPPPPPSGPGGPQHAPFAPPPPLVPIPGGAAPPPGSAPCKLGSQAGEAAKVFGGFQVVPAPDGQFAFLIPNGAFAHSGPVIPVYTSNSGTSVGPNAVSPSSGSSLTADSMWRPWRN

Columns and labels:
[1] = molecular target: T1, Flag-Hes-1WT (rat) (UniProt Q04666); experiment: co-IP; HEK293T co-transfected with Flag-Hes-1 and EGFP-PIAS1 constructs, lysed 48 h later; anti-Flag M2 affinity gel, 4°C 2 h, washed with PBS; blot for PIAS1; some groups with 0.2 mM H2O2 for 4 h, with CIP (20 U/ml), with Myc-SUMO-1 co-transfected
T1 sequence: B1 chain

[2] = molecular target: T2, Flag-Hes-1 3KR (rat) (UniProt Q04666); experiment: co-IP; HEK293T co-transfected with Flag-Hes-1WT or 3KR, EGFP-PIAS1 and Myc-SUMO-1, with or without H2O2; lysed with RIPA buffer containing 20 mM NEM; anti-Flag IP, blot for PIAS1
T2 sequence: B1 chain with K8R, K27R, K39R

[3] = molecular target: T1, Flag-Hes-1WT (rat); experiment: as above
[4] = molecular target: EGFP-PIAS1WT (rat); experiment: co-IP; HEK293T co-transfected with Flag-Hes-1WT and EGFP-PIAS1WT; reciprocal precipitation with EGFP antibody, 4°C 2 h, washed with PBS

Molecule	binding [1]	binding [2]	binding [3]	binding [4]
EGFP-PIAS1S90A (rat)	binds	–	–	–
EGFP-PIAS1WT (rat)	binds	binds	binds	–
B1	–	–	–	binds

Changes are numbered by the printed parent chain. These are yes or no findings as the source states them, for the method shown. In cells and extracts the contact can be indirect. Binding can be weak; no strength is given. Tags and fused reporters may be left off the sequences shown.
